Data reported in paper doi:10.1101/133777.
No constants are given. Whether binding was seen depends on the method and setting. In cells and extracts the contact can be indirect. These calls come from enrichment with a bait or labelling near it, and not all partners need be listed. Where a sequence is shown, tags or fusion partners need not be part of it.

The chains behind the UniProt entries cited, without tags or fusion partners.
UniProt O95747: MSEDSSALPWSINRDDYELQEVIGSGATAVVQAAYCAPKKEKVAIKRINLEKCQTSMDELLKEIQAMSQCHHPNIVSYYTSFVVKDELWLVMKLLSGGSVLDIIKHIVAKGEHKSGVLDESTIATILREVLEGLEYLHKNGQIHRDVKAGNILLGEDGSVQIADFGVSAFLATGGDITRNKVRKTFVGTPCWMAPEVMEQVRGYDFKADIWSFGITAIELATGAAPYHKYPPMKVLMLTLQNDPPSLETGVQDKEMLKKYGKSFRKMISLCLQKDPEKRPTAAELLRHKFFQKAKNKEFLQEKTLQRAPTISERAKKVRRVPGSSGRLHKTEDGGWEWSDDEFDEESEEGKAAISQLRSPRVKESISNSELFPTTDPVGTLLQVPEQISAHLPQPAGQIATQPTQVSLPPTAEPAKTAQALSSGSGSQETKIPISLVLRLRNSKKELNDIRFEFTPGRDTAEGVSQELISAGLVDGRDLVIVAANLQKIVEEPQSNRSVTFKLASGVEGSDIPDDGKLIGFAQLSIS
UniProt Q9H4A3: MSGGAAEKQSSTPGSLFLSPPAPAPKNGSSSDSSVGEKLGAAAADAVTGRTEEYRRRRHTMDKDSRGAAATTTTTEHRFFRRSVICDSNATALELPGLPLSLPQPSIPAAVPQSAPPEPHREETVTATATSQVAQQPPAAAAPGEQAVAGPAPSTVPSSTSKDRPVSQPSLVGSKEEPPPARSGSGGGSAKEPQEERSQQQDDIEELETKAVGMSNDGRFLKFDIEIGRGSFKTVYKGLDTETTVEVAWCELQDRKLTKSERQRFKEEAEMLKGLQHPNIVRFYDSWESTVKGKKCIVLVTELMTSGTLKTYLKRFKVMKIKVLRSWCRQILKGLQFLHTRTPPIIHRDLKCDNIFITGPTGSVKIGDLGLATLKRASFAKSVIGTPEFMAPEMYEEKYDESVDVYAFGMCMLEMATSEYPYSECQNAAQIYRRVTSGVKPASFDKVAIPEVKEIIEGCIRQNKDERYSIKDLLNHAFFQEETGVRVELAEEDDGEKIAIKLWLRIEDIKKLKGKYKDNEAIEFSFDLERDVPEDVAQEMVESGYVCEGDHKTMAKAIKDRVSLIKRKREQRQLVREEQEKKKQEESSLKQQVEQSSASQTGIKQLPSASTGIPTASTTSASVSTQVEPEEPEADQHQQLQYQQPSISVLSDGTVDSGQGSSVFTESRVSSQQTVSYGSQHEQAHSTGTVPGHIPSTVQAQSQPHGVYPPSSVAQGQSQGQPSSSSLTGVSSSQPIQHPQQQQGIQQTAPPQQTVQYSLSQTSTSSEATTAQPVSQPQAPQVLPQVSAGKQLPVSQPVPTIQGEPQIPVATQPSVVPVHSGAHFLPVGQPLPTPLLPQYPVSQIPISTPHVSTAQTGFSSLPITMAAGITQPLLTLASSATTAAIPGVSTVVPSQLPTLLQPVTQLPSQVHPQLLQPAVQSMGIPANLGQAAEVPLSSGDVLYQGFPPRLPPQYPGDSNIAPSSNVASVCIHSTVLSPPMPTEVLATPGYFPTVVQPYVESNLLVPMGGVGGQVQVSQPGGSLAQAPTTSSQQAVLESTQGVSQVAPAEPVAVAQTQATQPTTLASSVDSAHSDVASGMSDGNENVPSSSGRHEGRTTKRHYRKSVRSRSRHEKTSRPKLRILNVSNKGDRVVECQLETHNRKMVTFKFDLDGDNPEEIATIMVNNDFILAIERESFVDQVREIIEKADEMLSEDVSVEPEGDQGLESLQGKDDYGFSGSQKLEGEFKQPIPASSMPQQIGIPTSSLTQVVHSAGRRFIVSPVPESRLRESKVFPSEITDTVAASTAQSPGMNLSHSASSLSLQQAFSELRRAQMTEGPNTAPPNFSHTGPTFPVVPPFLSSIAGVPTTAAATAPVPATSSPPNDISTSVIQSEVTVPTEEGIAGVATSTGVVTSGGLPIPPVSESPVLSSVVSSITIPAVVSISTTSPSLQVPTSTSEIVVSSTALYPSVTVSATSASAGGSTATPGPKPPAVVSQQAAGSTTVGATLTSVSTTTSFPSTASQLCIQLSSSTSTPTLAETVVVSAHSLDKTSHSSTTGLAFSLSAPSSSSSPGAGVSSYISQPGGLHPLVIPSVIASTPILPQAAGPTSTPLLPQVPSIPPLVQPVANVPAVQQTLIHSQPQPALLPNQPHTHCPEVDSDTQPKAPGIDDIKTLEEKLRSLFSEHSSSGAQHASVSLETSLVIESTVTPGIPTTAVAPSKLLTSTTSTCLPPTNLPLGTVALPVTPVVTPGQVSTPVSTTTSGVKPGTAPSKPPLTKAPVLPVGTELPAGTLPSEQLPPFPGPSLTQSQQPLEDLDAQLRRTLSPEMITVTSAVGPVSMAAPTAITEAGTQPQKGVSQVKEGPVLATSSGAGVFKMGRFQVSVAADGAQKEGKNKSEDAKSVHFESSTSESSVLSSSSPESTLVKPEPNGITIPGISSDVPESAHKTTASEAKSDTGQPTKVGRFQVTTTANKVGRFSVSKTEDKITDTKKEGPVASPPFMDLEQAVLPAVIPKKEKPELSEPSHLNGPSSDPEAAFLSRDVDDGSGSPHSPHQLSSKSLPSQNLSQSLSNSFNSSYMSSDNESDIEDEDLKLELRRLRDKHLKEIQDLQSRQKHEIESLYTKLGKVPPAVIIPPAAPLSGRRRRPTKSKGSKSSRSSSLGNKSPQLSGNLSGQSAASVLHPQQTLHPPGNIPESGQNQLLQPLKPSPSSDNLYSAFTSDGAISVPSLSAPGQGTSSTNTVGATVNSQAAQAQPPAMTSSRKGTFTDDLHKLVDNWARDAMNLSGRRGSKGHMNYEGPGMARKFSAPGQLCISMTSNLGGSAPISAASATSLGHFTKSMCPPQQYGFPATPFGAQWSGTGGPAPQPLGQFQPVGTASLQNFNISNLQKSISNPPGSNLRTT

Target: T1, His6-3xFLAG-FBXL5-ΔFbox (UniProt Q9UKA1)
T1 sequence: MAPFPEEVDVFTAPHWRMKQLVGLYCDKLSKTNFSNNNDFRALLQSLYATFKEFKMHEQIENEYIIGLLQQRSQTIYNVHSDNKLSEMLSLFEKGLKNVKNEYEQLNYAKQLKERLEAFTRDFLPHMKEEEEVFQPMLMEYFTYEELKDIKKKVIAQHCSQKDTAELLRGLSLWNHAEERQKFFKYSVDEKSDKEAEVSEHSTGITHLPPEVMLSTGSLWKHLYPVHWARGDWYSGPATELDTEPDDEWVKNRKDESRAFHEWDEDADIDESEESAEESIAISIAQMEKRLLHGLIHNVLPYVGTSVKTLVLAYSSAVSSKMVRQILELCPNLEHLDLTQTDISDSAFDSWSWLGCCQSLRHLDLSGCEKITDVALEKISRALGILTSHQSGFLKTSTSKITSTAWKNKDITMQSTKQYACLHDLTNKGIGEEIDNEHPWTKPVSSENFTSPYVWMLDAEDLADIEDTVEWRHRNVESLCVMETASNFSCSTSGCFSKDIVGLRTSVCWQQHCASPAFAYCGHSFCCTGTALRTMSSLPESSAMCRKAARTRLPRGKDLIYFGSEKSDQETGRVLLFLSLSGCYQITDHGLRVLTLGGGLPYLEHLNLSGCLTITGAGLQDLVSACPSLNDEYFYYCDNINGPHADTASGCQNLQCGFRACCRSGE
Test: affinity purification with mass spectrometry

binding	Substance
binds	Oxidative Stress-Responsive 1 protein (OSR1), endogenous (from UniProt O95747 1-527)
binds	WNK1, endogenous (from UniProt Q9H4A3 1-2382)
